Article PMC4840320 (Scientific Reports, 2016)
Results are given in words; binding and its absence hold for the method and conditions named. Binding calls can cover weak binding; strength is not graded here. Where a sequence is shown, tags or fusion partners need not be part of it. For part of these data: Binding seen in cells or lysates may run through a third protein.

Chains of the proteins cited; added tags and fusions are not shown. Lines headed by an entry give the natural chain unless they say otherwise; changes in a name come on top.
UniProt H2L0N8: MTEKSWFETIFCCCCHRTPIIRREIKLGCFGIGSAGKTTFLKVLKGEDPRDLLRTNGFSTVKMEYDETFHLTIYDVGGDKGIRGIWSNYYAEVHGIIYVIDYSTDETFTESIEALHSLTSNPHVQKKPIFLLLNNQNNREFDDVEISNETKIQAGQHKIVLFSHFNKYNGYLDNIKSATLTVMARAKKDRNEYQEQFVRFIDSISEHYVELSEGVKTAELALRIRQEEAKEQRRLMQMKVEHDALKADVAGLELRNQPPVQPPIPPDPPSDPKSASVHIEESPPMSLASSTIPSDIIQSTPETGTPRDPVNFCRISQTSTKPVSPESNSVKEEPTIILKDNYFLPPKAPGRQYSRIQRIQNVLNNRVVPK
UniProt Q10658: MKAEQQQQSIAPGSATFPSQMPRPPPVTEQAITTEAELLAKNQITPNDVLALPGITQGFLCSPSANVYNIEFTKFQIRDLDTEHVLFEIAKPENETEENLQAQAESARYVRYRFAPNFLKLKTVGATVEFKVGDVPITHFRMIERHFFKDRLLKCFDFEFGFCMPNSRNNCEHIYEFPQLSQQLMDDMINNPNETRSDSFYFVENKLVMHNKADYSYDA

B1: ARL-3 with a BiFC tag (Venus fragment) in C. elegans (protein, UniProt O45379 1-184)
chain: MGLIDVLKSFKSPSGREIRILLLGLDNAGKTTILKQLSSEDVQHVTPTKGFNVKTVAAMGDIRLNVWDIGGQRSIRPYWSNYYENIDTLIFVIDSNDKKRFDEMNIELGELLDEEKLRKVPVLIFANKQDLVTAASSEEITRKLNLDLLRDRTWHIQACSALKNEGINDGITWVASNLKPASKK
B2: His-tagged ARL-3 (natural protein, C. elegans, UniProt O45379 1-184, looked up)
chain: MGLIDVLKSFKSPSGREIRILLLGLDNAGKTTILKQLSSEDVQHVTPTKGFNVKTVAAMGDIRLNVWDIGGQRSIRPYWSNYYENIDTLIFVIDSNDKKRFDEMNIELGELLDEEKLRKVPVLIFANKQDLVTAASSEEITRKLNLDLLRDRTWHIQACSALKNEGINDGITWVASNLKPASKK
notes: ARL-3, small GTPase of C. elegans, wild type; the methods speak of full-length and/or truncated cDNAs, and no truncation of ARL-3 is named; also called His-ARL-3; source: E. coli BL21, purified (His resin); not shown: His, N-terminal, kept
B3: ARL-3 dominant active (DA, Q72L) variant, recombinant (natural protein, C. elegans, UniProt O45379 1-184, looked up)
chain: MGLIDVLKSFKSPSGREIRILLLGLDNAGKTTILKQLSSEDVQHVTPTKGFNVKTVAAMGDIRLNVWDIGGLRSIRPYWSNYYENIDTLIFVIDSNDKKRFDEMNIELGELLDEEKLRKVPVLIFANKQDLVTAASSEEITRKLNLDLLRDRTWHIQACSALKNEGINDGITWVASNLKPASKK
notes: ARL-3, C. elegans, dominant active variant Q72L; also called ARL-3 DA; source: E. coli BL21, purified (His resin or glutathione sepharose)
B4: ARL-3 dominant negative (DN, T31N) variant, recombinant (natural protein, C. elegans, UniProt O45379 1-184, looked up)
chain: MGLIDVLKSFKSPSGREIRILLLGLDNAGKNTILKQLSSEDVQHVTPTKGFNVKTVAAMGDIRLNVWDIGGQRSIRPYWSNYYENIDTLIFVIDSNDKKRFDEMNIELGELLDEEKLRKVPVLIFANKQDLVTAASSEEITRKLNLDLLRDRTWHIQACSALKNEGINDGITWVASNLKPASKK
notes: ARL-3, C. elegans, dominant negative variant T31N; also called ARL-3 DN; ARL-3DN (T31N); source: E. coli BL21, purified (His resin or glutathione sepharose)

What follows are molecules tested against ARL-13 with a BiFC tag (Venus fragment) in C. elegans (C. elegans) (UniProt H2L0N8) (assay: split reporter; Venus-based BiFC in live transgenic C. elegans (N2 background; the ARL-13 pairs also in arl-3 or unc-119 mutants); signal in the InV-like compartment of cilia).
For “UNC-119 with a BiFC tag (Venus fragment) in C. elegans (from UniProt Q10658 1-219)”, the binding was “binds”. In the case of B1, the binding is reported as “binds”.

What follows are molecules tested against GST-fused full length ARL-13 (FL) (C. elegans) (UniProt H2L0N8) (assay: pull-down; GST pull-down: His-tagged protein incubated with GST-tagged protein immobilised on glutathione sepharose; 25 mM Tris-HCl pH 7.4, 150 mM NaCl, 0.5% Triton X-100, 1 mM DTT, 10% glycerol, 4 hours at 4 °C; six washes; anti-His immunoblot; both purified).
In the case of “His-tagged UNC-119 (from UniProt Q10658 1-219)”, the binding is reported as “binds”. B2 was tested, and the binding was “binds”. For B3, the binding was “no binding”. B4 was tested, and the binding was “binds”.
